Source: patent US20160362464A1
Results are given in words; binding and its absence hold for the method and conditions named. Binding seen in cells or lysates may run through a third protein. Some entries that bind do so weakly or less than the wild type. Tags and fused reporters may be left off the sequences shown. One block for each binder: values may come before it.

The chains behind the UniProt entries cited, without tags or fusion partners.
UniProt P10824: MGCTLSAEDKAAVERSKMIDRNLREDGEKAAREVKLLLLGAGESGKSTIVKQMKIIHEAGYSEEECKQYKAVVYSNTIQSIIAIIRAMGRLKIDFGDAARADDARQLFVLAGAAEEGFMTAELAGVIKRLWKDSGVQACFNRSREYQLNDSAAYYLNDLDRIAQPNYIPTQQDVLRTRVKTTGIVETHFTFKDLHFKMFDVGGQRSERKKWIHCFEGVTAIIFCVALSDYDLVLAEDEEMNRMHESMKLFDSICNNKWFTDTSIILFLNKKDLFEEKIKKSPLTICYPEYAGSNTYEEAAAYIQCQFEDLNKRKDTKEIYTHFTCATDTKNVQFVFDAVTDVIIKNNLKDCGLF
UniProt P04897: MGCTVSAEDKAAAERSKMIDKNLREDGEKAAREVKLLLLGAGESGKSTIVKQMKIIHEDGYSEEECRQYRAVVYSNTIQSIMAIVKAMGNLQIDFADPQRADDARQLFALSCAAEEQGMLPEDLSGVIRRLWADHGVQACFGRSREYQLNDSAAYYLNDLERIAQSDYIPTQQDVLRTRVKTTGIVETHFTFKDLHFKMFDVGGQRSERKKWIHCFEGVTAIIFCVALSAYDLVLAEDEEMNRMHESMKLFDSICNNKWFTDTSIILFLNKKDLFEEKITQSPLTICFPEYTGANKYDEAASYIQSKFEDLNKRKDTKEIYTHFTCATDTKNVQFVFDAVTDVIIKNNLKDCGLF
UniProt P08753: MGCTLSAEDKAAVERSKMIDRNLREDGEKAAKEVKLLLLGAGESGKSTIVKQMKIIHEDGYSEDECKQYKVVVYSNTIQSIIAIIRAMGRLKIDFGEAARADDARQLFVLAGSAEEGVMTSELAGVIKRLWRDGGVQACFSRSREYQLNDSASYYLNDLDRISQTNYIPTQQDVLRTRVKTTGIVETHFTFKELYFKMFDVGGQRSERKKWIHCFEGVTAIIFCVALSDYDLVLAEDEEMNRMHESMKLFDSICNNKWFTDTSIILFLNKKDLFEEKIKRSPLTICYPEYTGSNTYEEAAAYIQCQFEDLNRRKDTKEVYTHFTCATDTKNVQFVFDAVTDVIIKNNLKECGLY

Legend:
[1] = molecular target: GST-Gαi1 (rat) (UniProt P10824); experiment: GST pulldown, purified proteins (FIG. 1G)
[2] = molecular target: GST-Gαi2 (rat) (UniProt P04897); experiment: GST pulldown, purified proteins (FIG. 1G)
[3] = molecular target: GST-Gαi3 preloaded with GDP (inactive) (rat) (UniProt P08753); experiment: competition in GST pulldown, His-GIV-CT varied, His-DAPLE-CT fixed (FIG. 10B)
[4] = molecular target: GST-Gαi3 preloaded with GDP (inactive) (rat) (UniProt P08753); experiment: GST-Gαi3 (GDP) pulldown from Cos7 lysates (FIG. 18E); the WT binds

binding [1]: binds
binding [2]: binds
B1: His-DAPLE-CT (aa 1650-2028) (protein, not shown: small tags and cut ends)
chain: GTAPPYVGVRPCSASPSSEMVTLEEFLEESNRSSPTHDTPSCRDDLLSDYFRKASDPPAIGGQPGPPAKKEGAKMPTNFVAPTVKMAAPTSEGRPLKPGQYVKPNFRLTEAEAPPSVAPRQAQPPQSLSLGRPRQAPVPPASHAPASRSASLSRAFSLASADLLRASGPEACKQESPQKLGAPEALGGRETGSHTLQSPAPPSSHSLARERTPLVGKAGSSCQGPGPRSRPLDTRRFSLAPPKEERLAPLHQSATAPAIATAGAGAAAAGSGSNSQLLHFSPAAAPAARTKPKAPPRSGEVATITPVRAGLSLSEGDGVPGQGCSEGLPAKSPGRSPDLAPHLGRALEDCSRGSVSKSSPASPEPGGDPQTVWYEYGCV

binding [3]: binds
B2: His-GIV-CT (aa 1660-1870) (protein, UniProt Q3V6T2 1660-1870, looked up, not shown: small tags and cut ends)
chain: ISETLESRHHKIKTGSPGSEVVTLQQFLEESNKLTSVQIKSSSQENLLDEVMKSLSVSSDFLGKDKPVSCGLARSVSGKTPGDFYDRRTTKPEFLRPGPRKTEDTYFISSAGKPTPGTQGKIKLVKESSLSRQSKDSNPYATLPRASSVISTAEGTTRRTSIHDFLTKDSRLPISVDSPPAAADSNTTAASNVDKVQESRNSKSRSREQQS

binding [4]: binds
B3: myc-DAPLE-V2 WT (protein, not shown: small tags and cut ends)
chain: MSVLSPGDLKPKRGSPHRGSLDRTDASTDLAMRSWPSELGSRTCSTSATTTAPSNSTPIARHPGRTKGYNSDDNLCEPSLEFEVPNHRQYVSRPSSLESSRNTSSNSSPLNLKGSSEQLHGRSESFSSEDLIPSRDLATLPREASTPGRNALGRHEYPLPRNGPLPQEGAQKRGTAPPYVGVRPCSASPSSEMVTLEEFLEESNRSSPTHDTPSCRDDLLSDYFRKASDPPAIGGQPGPPAKKEGAKMPTNFVAPTVKMAAPTSEGRPLKPGQYVKPNFRLTEAEAPPSVAPRQAQPPQSLSLGRPRQAPVPPASHAPASRSASLSRAFSLASADLLRASGPEACKQESPQKLGAPEALGGRETGSHTLQSPAPPSSHSLARERTPLVGKAGSSCQGPGPRSRPLDTRRFSLAPPKEERLAPLHQSATAPAIATAGAGAAAAGSGSNSQLLHFSPAAAPAARTKPKAPPRSGEVATITPVRAGLSLSEGDGVPGQGCSEGLPAKSPGRSPDLAPHLGRALEDCSRGSVSKSSPASPEPGGDPQTVWYEYGCV
